This note sets out measurements from article doi:10.1101/2021.06.08.447515.

These are yes or no findings as the source states them, for the method shown. In cells and extracts the contact can be indirect. Here binding means that the protein was enriched with, or labelled near, the bait; the list need not be complete. Where a sequence is shown, tags or fusion partners need not be part of it.

The experiment addresses T1, recombinant canonical H2B (His-tag) (T. cruzi (CL Brener strain)) (UniProt B5U6T3).
T1 sequence: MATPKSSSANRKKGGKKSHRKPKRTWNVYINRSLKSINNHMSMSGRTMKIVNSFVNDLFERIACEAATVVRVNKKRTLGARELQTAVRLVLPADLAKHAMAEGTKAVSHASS
Description: affinity purification with mass spectrometry.

As for “retrotransposon hot spot (RHS) protein (TcCLB.506113.60) (T. cruzi (endogenous in TCTs))”, the binding result was “binds”.
